The target in this test is T1, SOS vector alone (hSOS without GRAIL) (human, UniProt Q07889 1-1066).
T1 construct: Negative control bait of the yeast two-hybrid screen
T1 sequence (looked up): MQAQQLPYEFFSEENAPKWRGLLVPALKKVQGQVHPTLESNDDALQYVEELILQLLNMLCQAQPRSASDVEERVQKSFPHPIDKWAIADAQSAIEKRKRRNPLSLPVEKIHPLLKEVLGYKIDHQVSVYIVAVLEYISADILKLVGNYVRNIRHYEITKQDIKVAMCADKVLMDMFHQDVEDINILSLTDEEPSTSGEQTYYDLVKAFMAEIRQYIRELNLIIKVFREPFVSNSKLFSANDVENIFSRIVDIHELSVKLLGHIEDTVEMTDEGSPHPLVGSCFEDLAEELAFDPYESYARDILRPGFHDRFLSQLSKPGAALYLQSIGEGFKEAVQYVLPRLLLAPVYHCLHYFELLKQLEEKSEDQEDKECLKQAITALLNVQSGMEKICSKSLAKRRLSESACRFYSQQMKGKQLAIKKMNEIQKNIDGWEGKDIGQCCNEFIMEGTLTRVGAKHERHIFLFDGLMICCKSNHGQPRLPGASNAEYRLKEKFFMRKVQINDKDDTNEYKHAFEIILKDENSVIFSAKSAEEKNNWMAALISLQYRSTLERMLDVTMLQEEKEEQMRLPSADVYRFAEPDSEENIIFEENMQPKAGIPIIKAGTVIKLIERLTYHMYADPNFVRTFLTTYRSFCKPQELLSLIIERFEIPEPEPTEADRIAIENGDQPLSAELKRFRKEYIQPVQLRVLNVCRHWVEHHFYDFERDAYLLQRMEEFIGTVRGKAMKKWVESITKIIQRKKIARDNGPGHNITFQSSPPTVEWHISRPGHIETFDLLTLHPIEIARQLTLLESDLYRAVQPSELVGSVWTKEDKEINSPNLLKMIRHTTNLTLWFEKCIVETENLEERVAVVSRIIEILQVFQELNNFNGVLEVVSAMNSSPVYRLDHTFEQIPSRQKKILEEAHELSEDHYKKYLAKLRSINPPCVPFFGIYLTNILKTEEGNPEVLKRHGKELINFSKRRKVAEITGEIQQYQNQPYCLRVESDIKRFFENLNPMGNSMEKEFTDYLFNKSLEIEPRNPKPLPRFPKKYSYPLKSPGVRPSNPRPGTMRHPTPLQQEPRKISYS
Kind of test: yeast two-hybrid (CytoTrap), secondary screen, growth on galactose at 37 C. As for the experimental part: Table I: A mouse liver library cloned into pMyr vector was purchased from Stratagene (La Jolla, CA). The C-terminal half of GRAIL, starting at F225 was PCR amplified, cloned into the pSOS vector, and used as bait. Yeast competent cells were co-transformed with either the bait and library or control vectors as described in the CytoTrap instruction manual (Stratagene). More than 5 x 10^5 clones were screened. Colonies displaying growth on galactose but not glucose at 37° C. were considered to be putative positives and were evaluated in a secondary screen. Colonies growing in the secondary screen on galactose at 37° C. and in the presence of the GRAIL-SOS bait vector, but not the SOS vector alone, were considered true interactors and sequenced.
Yeast and bacterial two-hybrid analysis. A mouse liver library cloned into pMyr vector was purchased from Stratagene (La Jolla, Calif.). The C-terminal half of Grail, starting at F225, was PCR amplified, cloned into the pSOS vector, and used as bait. Yeast competent cells were co-transformed with either the bait and library or control vectors as described in the CytoTrap instruction manual (Stratagene). More than 5 ×10^5 clones were screened. Colonies displaying growth on galactose but not glucose at 37° C. were considered to be putative positives and were used on a secondary screen. […]

B1: clone 6C-12 (100% identical to human E2-H5c) (enzyme, mouse, UniProt P61079 1-147, looked up)
chain: MALKRINKELSDLARDPPAQCSAGPVGDDMFHWQATIMGPNDSPYQGGVFFLTIHFPTDYPFKPPKVAFTTRIYHPNINSNGSICLDILRSQWSPALTISKVLLSICSLLCDPNPDDPLVPEIARIYKTDRDKYNRISREWTQKYAM
notes: Library clone; not shown: myristoylation signal of the pMyr plasmid
As for B1, the binding result is given as “no binding”.

B2: clone 5C-27 (98% identical to human E2-H5a) (enzyme, mouse, UniProt P61080 1-147, looked up)
chain: MALKRIQKELSDLQRDPPAHCSAGPVGDDLFHWQATIMGPPDSAYQGGVFFLTVHFPTDYPFKPPKIAFTTKIYHPNINSNGSICLDILRSQWSPALTVSKVLLSICSLLCDPNPDDPLVPDIAQIYKSDKEKYNRHAREWTQKYAM
notes: as for B1
For B2, the binding result is “no binding”.

Values taken from patent US7964369 (Stanford University, dated 2011).
